We go through one substance from PMC4234371.

Sequences of proteins named here, by UniProt entry; tags and fusion partners are left off. A change or cut given only in a name is not applied to a line headed by its entry.
UniProt P50591: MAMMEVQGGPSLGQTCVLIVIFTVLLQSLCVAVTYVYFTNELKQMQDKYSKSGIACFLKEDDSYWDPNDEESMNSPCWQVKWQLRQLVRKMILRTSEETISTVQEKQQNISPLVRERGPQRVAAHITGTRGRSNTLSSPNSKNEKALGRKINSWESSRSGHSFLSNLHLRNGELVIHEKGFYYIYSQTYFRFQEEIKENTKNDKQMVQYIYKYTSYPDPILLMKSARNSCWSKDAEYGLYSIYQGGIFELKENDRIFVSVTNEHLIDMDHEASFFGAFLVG
UniProt Q14790: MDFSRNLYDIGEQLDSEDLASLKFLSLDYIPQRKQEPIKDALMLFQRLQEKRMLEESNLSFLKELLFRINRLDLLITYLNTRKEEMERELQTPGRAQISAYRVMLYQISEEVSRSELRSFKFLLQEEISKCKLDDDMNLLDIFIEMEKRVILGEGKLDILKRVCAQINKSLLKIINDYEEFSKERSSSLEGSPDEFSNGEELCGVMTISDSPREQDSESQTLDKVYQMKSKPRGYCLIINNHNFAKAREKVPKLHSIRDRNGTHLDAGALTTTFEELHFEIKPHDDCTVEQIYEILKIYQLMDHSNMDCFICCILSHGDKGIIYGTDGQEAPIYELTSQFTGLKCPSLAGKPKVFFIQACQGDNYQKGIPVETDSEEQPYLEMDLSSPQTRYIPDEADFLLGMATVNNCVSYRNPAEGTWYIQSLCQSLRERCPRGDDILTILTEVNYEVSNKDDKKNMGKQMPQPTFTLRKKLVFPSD

Results are given in words; binding and its absence hold for the method and conditions named. In cells and extracts the contact can be indirect. A result given as binding can be weak or reduced; the word gives no strength.

Experiment [1] addresses Flag-tagged soluble TRAIL (tumor necrosis factor-related apoptosis-inducing ligand) (UniProt P50591). In words: co-IP; TRAIL DISC analysis in OVCAR3 sublines (Ctrl scFv and MUC16 scFv knockdown): cells stimulated with 1 ug/ml Flag-tagged TRAIL pre-incubated with 3 ug/ml anti-Flag M2 for 30 or 60 min, lysed in 30 mM Tris-HCl, 150 mM NaCl, 1% Triton, DISC precipitated with protein G agarose overnight at 4°C, immunoblot; only the target purified.

Experiment [2] has the same target. In words: co-IP; TRAIL DISC analysis in SKOV3 cells (empty vector and MUC16CTD): cells stimulated with 2 ug/ml Flag-tagged TRAIL pre-incubated with 3 ug/ml anti-Flag M2 for 30 or 60 min, lysed in 30 mM Tris-HCl, 150 mM NaCl, 1% Triton, DISC precipitated with protein G agarose overnight at 4°C, immunoblot; only the target purified. A general note: In western blotting, separated proteins are transferred to a membrane and probed.

As to “caspase-8 (pro-caspase-8 and its p43/41 fragments) (from UniProt Q14790 1-479) (enzyme)”, the binding entry in experiment [1] and in experiment [2] was “binds” in each case.
